PubChem BioAssay AID1508597 – Cure First | 2020
The whole screen tested about 2,100 reagents; this is an unselected part. 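Calls flag viability under 80% in either arm, not effects specific to rucaparib; the reference for percent is not stated.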 Entries without a mark were called inactive. No sequences are given here. Not given: the 100% reference.

- Purpose: 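Knock-downs altering ovarian cancer cell survival with or without PARP inhibitor rucaparib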 (primary screen)
- System: human ovarian carcinoma lines grown from tumours: OCI-P5x (papillary serous) and OCI-C5x (clear cell)
- Knock-down reagent: siRNA pool against human genes, 1.25 pmol siRNA per well
- Time to read-out: 72 h or 96 h, depending on the cell culture
- Conditions: rucaparib 20 µM (about IC30) or vehicle, present until read-out
- Measurement: 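Luminescent ATP-based viability assay read 72 or 96 h after transfection, depending on culture, given as normalised percent viability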
- Direction: viability, normalised: higher = more viable cells remaining
- Call rule: 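a well counts as a hit if its normalised viability is under 80 percent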
- Calls: active = viability under 80%; inactive = viability 80% or more

CHKB, rucaparib or vehicle Rucaparib, cell line OCI-C5x (clear cell), technical replicate 1
- viability, normalised (%): 64.9 (active)

CHKB, rucaparib or vehicle Rucaparib, cell line OCI-C5x (clear cell), technical replicate 2
- viability, normalised (%): 50.1 (active)

CHKB, rucaparib or vehicle Rucaparib, cell line OCI-C5x (clear cell), technical replicate 3
- viability, normalised (%): 61.7 (active)

CHKB, rucaparib or vehicle Rucaparib, cell line OCI-P5x (serous), technical replicate 1
- viability, normalised (%): 100

CHKB, rucaparib or vehicle Rucaparib, cell line OCI-P5x (serous), technical replicate 2
- viability, normalised (%): 93.6

CHKB, rucaparib or vehicle Rucaparib, cell line OCI-P5x (serous), technical replicate 3
- viability, normalised (%): 108

CHKB, rucaparib or vehicle Vehicle, cell line OCI-C5x (clear cell), technical replicate 1
- viability, normalised (%): 68.8 (active)

CHKB, rucaparib or vehicle Vehicle, cell line OCI-C5x (clear cell), technical replicate 2
- viability, normalised (%): 62 (active)

CHKB, rucaparib or vehicle Vehicle, cell line OCI-C5x (clear cell), technical replicate 3
- viability, normalised (%): 48.7 (active)

CHKB, rucaparib or vehicle Vehicle, cell line OCI-P5x (serous), technical replicate 1
- viability, normalised (%): 74.1 (active)

CHKB, rucaparib or vehicle Vehicle, cell line OCI-P5x (serous), technical replicate 2
- viability, normalised (%): 60.8 (active)

CHKB, rucaparib or vehicle Vehicle, cell line OCI-P5x (serous), technical replicate 3
- viability, normalised (%): 60.4 (active)
